# From PubChem BioAssay AID743255 (National Center for Advancing Translational Sciences (NCATS), 2014)
# Chains of the proteins cited; added tags and fusions are not shown. Lines headed by an entry give the natural chain unless they say otherwise; changes in a name come on top.
# UniProt O94782: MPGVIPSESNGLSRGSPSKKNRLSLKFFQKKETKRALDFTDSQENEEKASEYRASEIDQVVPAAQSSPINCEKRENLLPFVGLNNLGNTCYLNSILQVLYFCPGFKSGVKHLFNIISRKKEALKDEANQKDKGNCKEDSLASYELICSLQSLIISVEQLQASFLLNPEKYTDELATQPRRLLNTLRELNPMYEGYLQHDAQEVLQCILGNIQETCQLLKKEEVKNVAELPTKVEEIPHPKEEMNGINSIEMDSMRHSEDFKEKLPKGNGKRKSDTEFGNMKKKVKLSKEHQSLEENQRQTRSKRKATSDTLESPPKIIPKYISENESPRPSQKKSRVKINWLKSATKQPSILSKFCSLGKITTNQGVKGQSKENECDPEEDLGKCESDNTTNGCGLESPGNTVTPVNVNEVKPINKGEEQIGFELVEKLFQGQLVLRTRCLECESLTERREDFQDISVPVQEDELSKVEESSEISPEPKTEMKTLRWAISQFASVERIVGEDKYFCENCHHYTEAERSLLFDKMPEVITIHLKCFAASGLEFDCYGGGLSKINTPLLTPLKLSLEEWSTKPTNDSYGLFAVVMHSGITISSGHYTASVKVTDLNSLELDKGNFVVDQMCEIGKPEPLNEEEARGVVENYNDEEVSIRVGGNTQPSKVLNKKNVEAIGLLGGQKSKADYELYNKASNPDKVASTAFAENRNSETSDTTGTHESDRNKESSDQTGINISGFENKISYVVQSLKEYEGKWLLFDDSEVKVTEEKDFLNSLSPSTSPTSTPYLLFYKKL
# In all, about 390,000 compounds went through this assay and about 910 (0.23%) were called active. Inconclusive means that the source gave no clear call. Such entries were picked first, then a sample of the others. Calls follow the shape of the dose curve; as a rule, active = well fitted inhibition curve with a large enough effect; inconclusive = small, poorly fitted or top-dose-only effect; inactive = no such curve, though single readings can be large or run the other way. A potency beside an inconclusive call is a rough fit, not a confirmed value.
# Target: Ubiquitin carboxyl-terminal hydrolase 1 (Homo sapiens) (UniProt O94782)
# Assay: Inhibitors of USP1/UAF1: Primary Screen; also: nearly all actives have a fitted effect of over 60% in size
# Conditions: recombinant USP1/UAF1, Ub-Rhodamine cleavage fluorescence; activity change, negative = inhibition: at 57.1 µM (top of the series)
# How it was run: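 USP1/UAF1 complex (1 nM) preincubated 15 min at room temperature with compound, then Ub-Rho substrate (150 nM final) added. Kinetic fluorescence at 480/540 nm over 6 reads at 60 s intervals; 50 mM HEPES pH 7.8, 0.5 mM EDTA, 0.1 mg/ml BSA, 1 mM TCEP, 0.01% Tween-20.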
# % is scaled to controls: 0 for no effect and ±100 for the full control effect; potency is read from the fitted curve at half-maximal effect.
Structure (SMILES),Potency,"activity change, negative = inhibition"
O=C(C1CCN(S(=O)(=O)c2ccc(Br)s2)CC1)N1CCN(c2cccc(C(F)(F)F)c2)CC1,"inconclusive: 1.78 µM [inhibitor, partial curve]",
COc1cc2c(cc1OC)C1[C@H]3C(=CC[C@H]1OC2O)CCN3C (some centres undefined),"inconclusive: 70.8 µM [inhibitor, partial curve, poor fit]",
COc1ccc(OCC(=O)N2CCN(Cc3cccc(OC)c3OC)CC2)cc1,"inconclusive: 0.398 µM [inhibitor, full curve, poor fit]",
COCCNC(=O)Cn1cc(/C=C2\C(=O)NC(=O)N(c3ccccc3F)C2=O)c2ccccc21,"inconclusive: 50.1 µM [inhibitor, partial curve, poor fit]",
NS(=O)(=O)c1ccc(NC(=O)Nc2ccccc2)cc1,"inconclusive: 7.94 µM [inhibitor, partial curve, poor fit]",
CCOP(=S)(OCC)N1CCOCCOCCN(P(=S)(OCC)OCC)CCOCCOCC1,,inactive: -17.7%
CC12CCC3C(CCC4(O)CC(O)CCC34C=O)C1(O)CCC2C1=CC(=O)OC1 (centres undefined),,inactive: -18.9%
O=[N+]([O-])c1cccc(CCl)c1,"inconclusive: 28.2 µM [inhibitor, single point]",
C[C@H]1COC(=O)[C@H](Cc2ccc(F)cc2)CC/C=C/C[C@@H](CC(=O)N(CCO)Cc2ccccc2)C(=O)N1,"inconclusive: 89.1 µM [inhibitor, partial curve, poor fit]",
COC(=O)C1=C(c2ccc(OC(F)(F)F)cc2)C[C@@H]2CC[C@H]1N2C(=O)NCCc1ccccc1,"inconclusive: 7.08 µM [inhibitor, partial curve, poor fit]",
CC(C)CCn1c(N)c(C(=O)NCc2cccs2)c2nc3ccccc3nc21,"inconclusive: 17.8 µM [inhibitor, partial curve]",
O=C(N/N=C/c1c(O)n(Cc2ccccc2)c(=O)[nH]c1=O)c1ccccc1O,"inconclusive: 44.7 µM [inhibitor, partial curve]",
CN1CCN(c2c(C#N)c(C(F)(F)F)nn2C)CC1,"inconclusive: 11.2 µM [inhibitor, full curve, poor fit]",
C[C@H]1CCC/C=C/[C@@H]2C[C@H](O)C[C@H]2[C@H](O)/C=C/C(=O)O1,"inconclusive: 6.31 µM [inhibitor, full curve, poor fit]",
CCN1C(=O)C(=C2C=C(C)N(Cc3ccco3)C(C)=C2)C(=O)N(CC)C1=S,"inconclusive: 7.08 µM [inhibitor, full curve, poor fit]",
O=C(O)c1cccc(NC(=O)N2C[C@H]3C[C@@H](C2)c2cccc(=O)n2C3)c1,"inconclusive: 31.6 µM [inhibitor, partial curve, poor fit]",
Cc1ccccc1Nc1c(-c2ccc(Br)cc2O)nc2sccn12,"inconclusive: 0.891 µM [inhibitor, full curve, poor fit]",
Cc1ccc(C2CC3CCC(C2)N3Cc2ccccc2F)cc1 (centres undefined),,inactive: -2.92%
Clc1ccc(CNC2CN3CCC2CC3)cc1 (centres undefined),,inactive: -13.9%
Cc1ncoc1C(=O)NCCC(c1ccccc1)c1ccccc1,"inconclusive: 31.6 µM [inhibitor, partial curve]",

Structure (SMILES),Potency,"activity change, negative = inhibition"
CCCCn1c(NS(=O)(=O)c2ccc(C)cc2)c(C(=O)OCC)c2nc3ccccc3nc21,"inconclusive: 15.8 µM [inhibitor, single point]",
O=C(CCNC(=O)N1C[C@H]2C[C@@H](C1)c1cccc(=O)n1C2)Nc1ccc(F)cc1,"inconclusive: 79.4 µM [inhibitor, partial curve]",
CCCC1=Nc2cc(C(=O)NC3CCC(C)CC3)ccc2Sc2ccccc21 (centres undefined),"inconclusive: 31.6 µM [inhibitor, partial curve]",
Cc1ccc(C)c(CN2C(=O)c3ccccc3S(=O)(=O)c3ccc(C(=O)N4CCCCCC4)cc32)c1,,inactive: 39.7%
CC(N)Cc1cn(Cc2ccccc2)c2ccccc12 (centres undefined),"inconclusive: 1.26 µM [inhibitor, full curve]",
CCOc1ccc2oc(C(=O)NN3C(C)CCCC3C)c(C)c2c1 (centres undefined),"inconclusive: 7.08 µM [inhibitor, single point]",
COc1ccc(CNc2oc(-c3cccc4ccccc34)nc2P(=O)(OC)OC)cc1,"inconclusive: 50.1 µM [inhibitor, partial curve, poor fit]",
CN(C)/C=C1/C(=O)NC(=O)N(CCNc2ncc(C(F)(F)F)cc2Cl)C1=O,"inconclusive: 28.2 µM [inhibitor, partial curve]",
O=C(O)c1cccc2c1NC(c1cccc([N+](=O)[O-])c1)C1CC(Sc3ccccc3[N+](=O)[O-])C(Cl)C21 (centres undefined),"inconclusive: 35.5 µM [inhibitor, partial curve]",
CN(C)Cc1c[nH]c2ccc([N+](=O)[O-])cc12,"inconclusive: 39.8 µM [inhibitor, partial curve, poor fit]",
Cc1ccc(C(=O)N/C(=C\Cl)P(=O)(c2ccccc2)c2ccccc2)cc1,"inconclusive: 11.2 µM [inhibitor, partial curve, poor fit]",
O=C1NC(=O)N(c2cccc(F)c2)C(=O)/C1=C/c1ccc(N2CCOCC2)cc1,,inactive: 2.18%
C/C(=N\NC(=O)c1ccccc1O)c1c(O)n(C2CCCCC2)c(=O)[nH]c1=O,"inconclusive: 5.01 µM [inhibitor, partial curve, poor fit]",
CC(C)NCC(O)c1ccc(C2CCCC2)cc1 (centres undefined),,inactive: -5.31%
OCC1CO1 (centres undefined),"inconclusive: 35.5 µM [inhibitor, single point]",
CNc1ccccc1,"inconclusive: 35.5 µM [inhibitor, single point]",
CN(C)[C@@H]1C(=O)C(C(N)=O)=C(O)[C@@]2(O)C(=O)C3=C(O)c4c(O)ccc(Cl)c4[C@@](C)(O)C3C[C@@H]12 (some centres undefined),"inconclusive: 31.6 µM [inhibitor, single point]",
CCC(=NCc1ccc2c(c1)OCO2)c1c(O)n(C2CCCCC2)c(=O)[nH]c1=O,"inconclusive: 39.8 µM [inhibitor, partial curve]",
Cc1cc(C=C(C#N)C#N)ccc1N1CCCC1,"inconclusive: 31.6 µM [inhibitor, partial curve, poor fit]",

# Look-ups from the results shown.
# Under Potency, OCC1CO1 (centres undefined) has inconclusive: 35.5 µM [inhibitor, single point]
# Under activity change, negative = inhibition, O=C1NC(=O)N(c2cccc(F)c2)C(=O)/C1=C/c1ccc(N2CCOCC2)cc1 has inactive: 2.18%
# Under Potency, Cc1ccc(C(=O)N/C(=C\Cl)P(=O)(c2ccccc2)c2ccccc2)cc1 has inconclusive: 11.2 µM [inhibitor, partial curve, poor fit]
